Laboratory results: the supplement of paper PMC4604168 (melanoma cell lines)
The other results are listed elsewhere or left out. Many values rest on one well or one pass, so single values are uncertain.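 The apoptosis fraction was the count of cleaved-PARP antibody-stained nuclei relative to all DNA-stained nuclei, imaged in 1,536-well plates. Screening doses were set so most cells survived, and baseline and induced cleaved-PARP levels vary greatly across cell lines.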

Each molecule was assayed on 501Mel (assay: cleaved PARP positive nuclei fraction relative to DMSO control; melanoma cells; higher = more apoptosis). Settings: library dose: low library concentration; 72 h.
In the case of O=c1[nH]nc(Sc2ncc([N+](=O)[O-])s2)n1-c1ccc2c(c1)OCCO2 + O=C(CCCCCCC(=O)Nc1ccccc1)NO [vorinostat] (first compound 0.2 µM, partner dose 0.08 µM), the “cleaved PARP positive nuclei fraction” value is reported as 51.4%. With Cc1ccc(Nc2nccc(N(C)c3ccc4c(C)n(C)nc4c3)n2)cc1S(N)(=O)=O [Pazopanib] + CO[C@@H]1[C@H](N(C)C(=O)c2ccccc2)C[C@H]2O[C@]1(C)n1c3ccccc3c3c4c(c5c6ccccc6n2c5c31)C(=O)NC4 [Midostaurin] (first compound 0.4 µM, partner dose 0.08 µM) the “cleaved PARP positive nuclei fraction” value was 201%. With N#CC[C@H](C1CCCC1)n1cc(-c2ncnc3[nH]ccc23)cn1 [ruxolitinib] + Cc1cc(N2CCOCC2)cc2[nH]c(-c3c(NC[C@@H](O)c4cccc(Cl)c4)cc[nH]c3=O)nc12 [BMS536924] (first compound 1 µM, partner dose 0.2 µM) the “cleaved PARP positive nuclei fraction” value was 440%. For COc1cc([C@@H]2c3cc4c(cc3[C@@H](O[C@@H]3O[C@@H]5CO[C@@H](C)O[C@H]5[C@H](O)[C@H]3O)[C@H]3COC(=O)[C@H]23)OCO4)cc(OC)c1O [etoposide] + CO[C@@H]1[C@H](N(C)C(=O)c2ccccc2)C[C@H]2O[C@]1(C)n1c3ccccc3c3c4c(c5c6ccccc6n2c5c31)C(=O)NC4 [Midostaurin] (first compound 0.02 µM, partner dose 0.08 µM), the “cleaved PARP positive nuclei fraction” value was 95.8%. In the case of COc1cc([C@@H]2c3cc4c(cc3[C@@H](O[C@@H]3O[C@@H]5CO[C@@H](C)O[C@H]5[C@H](O)[C@H]3O)[C@H]3COC(=O)[C@H]23)OCO4)cc(OC)c1O [etoposide] + O=C(Nc1cccc(Cl)c1)Nc1ncc(CCNc2ncnc3ccsc23)s1 [SNS314] (first compound 0.02 µM, partner dose 0.0008 µM), the “cleaved PARP positive nuclei fraction” value is reported as 380%. For CCCCCCCCCCCCCCCCCCOP(=O)([O-])OC1CC[N+](C)(C)CC1 [Perifosine] + NC(=O)Nc1cc(-c2cccc(F)c2)sc1C(=O)N[C@H]1CCCNC1 [AZD7762] (first compound 0.4 µM, partner dose 0.02 µM), the “cleaved PARP positive nuclei fraction” value was 78.2%. O=C(/C=C/c1cccnc1)NCCCCC1CCN(C(=O)c2ccccc2)CC1 + CO[C@@H]1[C@H](N(C)C(=O)c2ccccc2)C[C@H]2O[C@]1(C)n1c3ccccc3c3c4c(c5c6ccccc6n2c5c31)C(=O)NC4 [Midostaurin] (first compound 0.01 µM, partner dose 0.08 µM) was tested, and the “cleaved PARP positive nuclei fraction” value was 174%. With CC[C@]1(O)C[C@H]2CN(CCc3c([nH]c4ccccc34)[C@@](C(=O)OC)(c3cc4c(cc3OC)N(C=O)[C@H]3[C@@](O)(C(=O)OC)[C@H](OC(C)=O)[C@]5(CC)C=CCN6CC[C@]43[C@@H]65)C2)C1 [vincristine] + CN(C)S(=O)(=O)c1ccc2c(c1)/C(=C/c1cc3c([nH]1)CCCC3)C(=O)N2 [SU6656] (first compound 0.0001 µM, partner dose 0.4 µM) the “cleaved PARP positive nuclei fraction” value was 214%. With O=C(/C=C/c1cccnc1)NCCCCC1CCN(C(=O)c2ccccc2)CC1 + CN(C)S(=O)(=O)c1ccc2c(c1)/C(=C/c1cc3c([nH]1)CCCC3)C(=O)N2 [SU6656] (first compound 0.01 µM, partner dose 0.4 µM) the “cleaved PARP positive nuclei fraction” value was 97.3%. In the case of Cc1ccc(Nc2nccc(N(C)c3ccc4c(C)n(C)nc4c3)n2)cc1S(N)(=O)=O [Pazopanib] + NC(=O)Nc1cc(-c2cccc(F)c2)sc1C(=O)N[C@H]1CCCNC1 [AZD7762] (first compound 0.4 µM, partner dose 0.02 µM), the “cleaved PARP positive nuclei fraction” value is reported as 83%. In the case of Cc1cn(-c2cc(NC(=O)c3ccc(C)c(Nc4nccc(-c5cccnc5)n4)c3)cc(C(F)(F)F)c2)cn1 [nilotinib] + NC(=O)Nc1cc(-c2cccc(F)c2)sc1C(=O)N[C@H]1CCCNC1 [AZD7762] (first compound 0.2 µM, partner dose 0.02 µM), the “cleaved PARP positive nuclei fraction” value is reported as 72%. With CCCCCCCCCCCCCCCCCCOP(=O)([O-])OC1CC[N+](C)(C)CC1 [Perifosine] + C[C@@H]1CCN(C(=O)CC#N)C[C@@H]1N(C)c1ncnc2[nH]ccc12 [CP690550] (first compound 0.4 µM, partner dose 1 µM) the “cleaved PARP positive nuclei fraction” value was 84.9%. For N#CC[C@H](C1CCCC1)n1cc(-c2ncnc3[nH]ccc23)cn1 [ruxolitinib] + C[C@@H]1CCN(C(=O)CC#N)C[C@@H]1N(C)c1ncnc2[nH]ccc12 [CP690550] (first compound 1 µM, partner dose 1 µM), the “cleaved PARP positive nuclei fraction” value was 59.6%. COc1cc([C@@H]2c3cc4c(cc3[C@@H](O[C@@H]3O[C@@H]5CO[C@@H](C)O[C@H]5[C@H](O)[C@H]3O)[C@H]3COC(=O)[C@H]23)OCO4)cc(OC)c1O [etoposide] + Cn1cncc1[C@@](N)(c1ccc(Cl)cc1)c1ccc2c(c1)c(-c1cccc(Cl)c1)cc(=O)n2C [tipifarnib] (first compound 0.02 µM, partner dose 0.01 µM) was tested, and the “cleaved PARP positive nuclei fraction” value was 165%. In the case of N#CC[C@H](C1CCCC1)n1cc(-c2ncnc3[nH]ccc23)cn1 [ruxolitinib] + Cc1ccc(NC(=O)c2cccc(N(C)C)c2)cc1NC(=O)c1ccc(O)cc1 [ZM336372] (first compound 1 µM, partner dose 2 µM), the “cleaved PARP positive nuclei fraction” value is reported as 47.4%. In the case of N#CC[C@H](C1CCCC1)n1cc(-c2ncnc3[nH]ccc23)cn1 [ruxolitinib] + COc1cc2c(Oc3ccc4[nH]c(C)cc4c3F)ncnc2cc1OCCCN1CCCC1 [cediranib] (first compound 1 µM, partner dose 0.4 µM), the “cleaved PARP positive nuclei fraction” value is reported as 71.8%. With O=c1[nH]nc(Sc2ncc([N+](=O)[O-])s2)n1-c1ccc2c(c1)OCCO2 + O=C(O)c1ccc(-c2c[nH]c3ncc(-c4ccccc4)cc23)cc1C1CCCC1 [GSK650394] (first compound 0.2 µM, partner dose 0.16 µM) the “cleaved PARP positive nuclei fraction” value was 87.8%. For Cc1cc(Nc2cc(N3CCN(C)CC3)nc(Sc3ccc(NC(=O)C4CC4)cc3)n2)n[nH]1 [Tozasertib] + COc1cc2c(Oc3ccc4[nH]c(C)cc4c3F)ncnc2cc1OCCCN1CCCC1 [cediranib] (first compound 0.006 µM, partner dose 0.4 µM), the “cleaved PARP positive nuclei fraction” value was 96.6%. With O=c1[nH]nc(Sc2ncc([N+](=O)[O-])s2)n1-c1ccc2c(c1)OCCO2 + NCC(=O)Nc1ccc(-n2nc(C(F)(F)F)cc2-c2ccc3c(ccc4ccccc43)c2)cc1 [OSU03012] (first compound 0.2 µM, partner dose 1 µM) the “cleaved PARP positive nuclei fraction” value was 288%. N#CC[C@H](C1CCCC1)n1cc(-c2ncnc3[nH]ccc23)cn1 [ruxolitinib] + CN(C)S(=O)(=O)c1ccc2c(c1)/C(=C/c1cc3c([nH]1)CCCC3)C(=O)N2 [SU6656] (first compound 1 µM, partner dose 0.4 µM) was tested, and the “cleaved PARP positive nuclei fraction” value was 88.5%. For CC[C@]1(O)C[C@H]2CN(CCc3c([nH]c4ccccc34)[C@@](C(=O)OC)(c3cc4c(cc3OC)N(C=O)[C@H]3[C@@](O)(C(=O)OC)[C@H](OC(C)=O)[C@]5(CC)C=CCN6CC[C@]43[C@@H]65)C2)C1 [vincristine] + O=C(Nc1cccc(Cl)c1)Nc1ncc(CCNc2ncnc3ccsc23)s1 [SNS314] (first compound 0.0001 µM, partner dose 0.0008 µM), the “cleaved PARP positive nuclei fraction” value was 81%.
